Assay results published in article PMC7949094, “Pantoea stewartii WceF is a glycan biofilm-modifying enzyme with a bacteriophage tailspike-like fold” (The Journal of Biological Chemistry, 2021).
These are yes or no findings as the source states them, for the method shown. Some results given as binding are weak or reduced against the parent protein; the word gives no strength.

Molecular target: Pantoea stewartii WceF (residues 29-736, lacking the Tat signal peptide) (Pantoea stewartii subsp. stewartii) (UniProt H3REJ8)
Test: crystal structure; sitting-drop vapour diffusion at 20 °C; native WceF 8 mg/ml, 20% PEG3350, 200 mM di-ammonium-hydrogen citrate, pH 5.0; three chains in the asymmetric unit; 2.55 Å; both purified

B1: Pantoea stewartii WceF (residues 29-736, lacking the Tat signal peptide) (enzyme)
chain: KNTGLALKSVDATAIPKGDVPILTPENVYAMPPQFWQNFQGKLWIGRAGSDARQPGNQIPVFLRDANGNLAQITQPITLNKGNFDQFVKDNAALIANPSHAMALEDSNGQTVFNIPDVSQPGQAAFSQRLAQPAGYQLIGEIPSVDDLRKTRPLFEGAKIKLKSWHPGLEVGGGEFVGSFQPAQDDQGVIFSGDGFHWRRVVDDYNRLSLFDFGAIADGKTDSAPAIKAMYQWSQQSDQPICVQFPAGTFFVTGCDFGEEQRRFFRISGAMVNFGYFPATTIVSDGQSPFVFEVSARWVEISNLIFNGNTDTKPNRQGLLRNTCPGGQFFRGACLRFNNVGGTALSLLDTLDCKIDQWYASACTGDVIQAGWSGQKKGNWDHSTAIELSNFNAQHCKGGKVLNLPRCSQSLIHNGWIEHCDNPGDISNGQWIIDALSLEDCKNPLIAWHSRLNTRQTNLQSGSWIDNSEQGDRWLSAWEMGSTRVESYGVAIDGSLKYNYLTSRWLLENNTSQPVWYELANLYSPTVGDSWEIEVFGQSQFNNGTDSEPLMNLIDGRNTGGRAVIHVQRKKDHAEASWSAEGSSPVLDVRYVAKTDTDTQVFIRLAGWTPSAAIMIKSTAKDRFVTGRCARVDAKMAKATPDSGSHAAPQRFSLHNGKAGVGANEQGDLLLASRALSADNVDTRKPEGFVSVVINGKTVALPYFAIKA
notes: WceF of Pantoea stewartii subsp. stewartii DSM 30176, amplified from genomic DNA; recombinant construct residues 29-736 without the N-terminal 28 amino acids of the Tat signal peptide (the methods say aa 28-736); residues 34-736 resolved in the electron density; His6 tag followed by a TEV site, cleaved off for the purified protein; The forward primer encodes ...ENLYFQG-AKNTGL, so a glycine …
binding: binds
